Source: US9611273B2, “Trioxane thioacetal monomers and dimers and methods of use thereof” (THE JOHNS HOPKINS UNIVERSITY, priority 2012, dated 2017)
For at least one compound, name, drawing or mass did not settle the structure.

Test system: P. berghei malaria parasites
Assay: In vivo antimalarial efficacy, single oral dose of trioxane plus mefloquine hydrochloride in P. berghei-infected mice
Conditions: single oral dose of 6 mg/kg trioxane and 18 mg/kg mefloquine hydrochloride (control: mefloquine-HCl only), 4 mice per group
Procedure: Using a standard protocol, see Slack, et al., 2012, 20-gram mice were infected by intraperitonial injection with P. berghei malaria parasites. One day after infection, each mouse in groups of 4 mice received a single oral dose of 6 mg/kg body weight of a trioxane thioacetal combined with 18 mg/kg of the long-lived antimalarial mefloquine hydrochloride. In all cases, parasitemia was decreased by at least 99% on day 3 post infection. Malaria-infected mice receiving no antimalarial drug died on day 6 or 7 post infection. Critically, control groups of mice receiving 6 mg/kg of the popular trioxane drug artemether (2b) plus 18 mg/kg of mefloquine, or just 18 mg/kg of mefloquine alone, survived for about 3 weeks post infection. In contrast, several of the presently disclosed trioxane thioacetals prolonged mouse survival for longer than 3 weeks, and in some instances produced partial cures; for example, 2 of 4 mice in one group (diisopropyl carbamate 3u) appeared healthy and had no detectable parasitemia on day 30 post infection.
The antimalarial efficacy of representative presently disclosed C-10 thioacetals, as well as controls, is summarized in Table 1, which includes the parasitemia levels for mice on day 3 post-infection.

In the case of `Cl.OC(c1cc(C(F)(F)F)nc2c(C(F)(F)F)cccc12)C1CCCCN1` (stereo not shown) [mefloquine-HCl only, mefloquine hydrochloride, reference compound], the “survival of the individual mice (days) after infection” value is reported as “(17, 13, 13, 13) days”.
